In one test the target is T1, Myc-STAG2 WT (human) (UniProt Q8N3U4).
T1 sequence: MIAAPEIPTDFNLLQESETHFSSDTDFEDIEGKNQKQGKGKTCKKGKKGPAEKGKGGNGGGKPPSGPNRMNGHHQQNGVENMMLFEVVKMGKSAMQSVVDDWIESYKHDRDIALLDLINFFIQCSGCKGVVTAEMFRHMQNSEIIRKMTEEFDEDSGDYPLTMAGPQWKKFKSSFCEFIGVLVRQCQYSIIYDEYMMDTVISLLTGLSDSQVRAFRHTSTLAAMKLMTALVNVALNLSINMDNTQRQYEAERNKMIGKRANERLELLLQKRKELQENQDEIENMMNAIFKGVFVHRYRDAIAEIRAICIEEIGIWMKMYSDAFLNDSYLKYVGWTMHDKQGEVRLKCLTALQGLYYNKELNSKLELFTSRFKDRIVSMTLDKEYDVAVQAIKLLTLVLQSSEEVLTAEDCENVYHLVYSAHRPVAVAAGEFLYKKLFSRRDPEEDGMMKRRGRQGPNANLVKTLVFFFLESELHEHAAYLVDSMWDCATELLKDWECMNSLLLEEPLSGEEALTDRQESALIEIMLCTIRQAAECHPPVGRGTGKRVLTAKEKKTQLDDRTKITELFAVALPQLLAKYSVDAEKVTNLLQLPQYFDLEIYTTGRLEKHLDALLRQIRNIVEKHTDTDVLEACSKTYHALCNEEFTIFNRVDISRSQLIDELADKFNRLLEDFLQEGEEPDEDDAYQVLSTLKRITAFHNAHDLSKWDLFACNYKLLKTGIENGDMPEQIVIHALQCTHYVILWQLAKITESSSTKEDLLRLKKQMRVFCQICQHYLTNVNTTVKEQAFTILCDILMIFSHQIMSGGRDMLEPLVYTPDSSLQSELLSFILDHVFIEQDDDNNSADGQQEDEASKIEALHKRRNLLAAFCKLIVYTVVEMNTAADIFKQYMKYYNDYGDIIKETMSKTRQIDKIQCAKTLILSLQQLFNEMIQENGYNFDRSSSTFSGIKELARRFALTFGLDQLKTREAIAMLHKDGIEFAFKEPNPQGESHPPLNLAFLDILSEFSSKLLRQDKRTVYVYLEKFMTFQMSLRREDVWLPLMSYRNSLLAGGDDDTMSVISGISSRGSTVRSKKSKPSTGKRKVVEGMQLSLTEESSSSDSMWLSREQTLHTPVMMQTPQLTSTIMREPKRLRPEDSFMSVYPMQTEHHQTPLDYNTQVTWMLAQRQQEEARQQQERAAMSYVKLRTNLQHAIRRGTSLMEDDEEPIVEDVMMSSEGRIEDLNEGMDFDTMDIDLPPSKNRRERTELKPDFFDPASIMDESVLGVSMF
The experiment in a line: co-IP; anti-Myc beads, lysates of HeLa Tet-On cells transfected with Myc-STAG2 WT or mutants; 3 h at 4 °C; washes with lysis buffer containing 200 mM NaCl; blots for endogenous proteins.

The chains behind the UniProt entries cited, without tags or fusion partners.
UniProt Q96FF9: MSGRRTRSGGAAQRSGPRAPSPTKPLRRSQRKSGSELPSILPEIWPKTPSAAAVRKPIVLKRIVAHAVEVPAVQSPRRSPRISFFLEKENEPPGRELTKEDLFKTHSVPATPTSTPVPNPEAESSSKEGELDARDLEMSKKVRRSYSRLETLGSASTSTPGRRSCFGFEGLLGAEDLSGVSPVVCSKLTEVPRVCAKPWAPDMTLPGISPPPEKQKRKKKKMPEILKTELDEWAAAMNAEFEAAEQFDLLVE
UniProt Q9UQE7: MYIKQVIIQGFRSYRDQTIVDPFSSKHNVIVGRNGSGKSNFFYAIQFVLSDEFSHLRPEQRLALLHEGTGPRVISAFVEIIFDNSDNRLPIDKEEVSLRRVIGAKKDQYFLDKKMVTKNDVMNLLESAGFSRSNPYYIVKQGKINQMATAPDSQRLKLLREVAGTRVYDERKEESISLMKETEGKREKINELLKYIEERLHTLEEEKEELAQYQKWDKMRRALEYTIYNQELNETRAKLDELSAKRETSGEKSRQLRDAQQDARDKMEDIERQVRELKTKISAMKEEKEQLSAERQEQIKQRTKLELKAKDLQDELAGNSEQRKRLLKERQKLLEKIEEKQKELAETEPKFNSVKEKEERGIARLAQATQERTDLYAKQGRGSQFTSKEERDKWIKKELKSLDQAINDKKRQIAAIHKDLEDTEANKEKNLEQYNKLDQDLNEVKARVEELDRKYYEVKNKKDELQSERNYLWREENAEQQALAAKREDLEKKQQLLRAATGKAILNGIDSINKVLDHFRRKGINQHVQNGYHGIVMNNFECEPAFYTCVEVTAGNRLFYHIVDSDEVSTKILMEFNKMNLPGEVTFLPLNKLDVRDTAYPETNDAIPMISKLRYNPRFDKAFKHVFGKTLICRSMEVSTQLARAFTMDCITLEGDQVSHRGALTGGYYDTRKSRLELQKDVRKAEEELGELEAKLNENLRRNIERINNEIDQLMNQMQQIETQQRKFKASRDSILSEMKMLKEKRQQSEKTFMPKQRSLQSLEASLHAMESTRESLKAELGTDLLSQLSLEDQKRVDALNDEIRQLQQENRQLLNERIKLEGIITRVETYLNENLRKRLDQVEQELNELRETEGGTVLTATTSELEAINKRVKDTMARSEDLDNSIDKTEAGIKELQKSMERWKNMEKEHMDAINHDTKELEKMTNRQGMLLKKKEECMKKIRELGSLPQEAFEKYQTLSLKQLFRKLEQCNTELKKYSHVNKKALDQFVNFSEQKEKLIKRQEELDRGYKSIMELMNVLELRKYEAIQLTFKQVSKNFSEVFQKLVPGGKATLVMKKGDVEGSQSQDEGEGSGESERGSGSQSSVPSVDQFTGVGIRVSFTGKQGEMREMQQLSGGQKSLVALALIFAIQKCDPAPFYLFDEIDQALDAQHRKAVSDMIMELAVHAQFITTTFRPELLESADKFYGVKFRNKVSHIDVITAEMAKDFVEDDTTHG

Test [1] deals with T2, GST-WAPL(410–590) (human) (UniProt Q7Z5K2).
T2 sequence: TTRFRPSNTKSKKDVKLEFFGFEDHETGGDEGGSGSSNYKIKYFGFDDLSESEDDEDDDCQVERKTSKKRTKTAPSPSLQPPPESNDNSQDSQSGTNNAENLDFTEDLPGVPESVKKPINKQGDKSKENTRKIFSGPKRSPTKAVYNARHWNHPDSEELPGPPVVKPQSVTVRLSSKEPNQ
Put plainly: pull-down; GST-SGO1(302–367) T346E or GST-WAPL(410–590) on Glutathione Sepharose 4B beads, incubated with the in vitro translated 35S-STAG2–SCC1(211–420) complex at 4 °C for 2 h; washed four times with TBS, 0.05% Tween 20; SDS-PAGE, phosphoimager; only the target purified.

Test [2] addresses T3, GST-SGO1(302–367) T346E (human) (UniProt Q5FBB7).
T3 sequence: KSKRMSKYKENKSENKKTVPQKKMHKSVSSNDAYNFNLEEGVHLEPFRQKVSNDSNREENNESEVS
The description is as above.

Changes are numbered by the printed parent chain. These are yes or no findings as the source states them, for the method shown. Binding seen in cells or lysates may run through a third protein. Some results given as binding are weak or reduced against the parent protein; the word gives no strength. Tags and fused reporters may be left off the sequences shown.

For the molecule “endogenous SORORIN (from UniProt Q96FF9 1-252)”, the binding result in the test with Myc-STAG2 WT (human) is “binds”.

Turning to “endogenous SMC3 (from UniProt Q9UQE7 1-1217)”, the binding entry with Myc-STAG2 WT (human) is reported as “binds”.

B1: endogenous WAPL (protein, UniProt Q7Z5K2 1-1190)
chain: MTSRFGKTYSRKGGNGSSKFDEVFSNKRTTLSTKWGETTFMAKLGQKRPNFKPDIQEIPKKPKVEEESTGDPFGFDSDDESLPVSSKNLAQVKCSSYSESSEAAQLEEVTSVLEANSKISHVVVEDTVVSDKCFPLEDTLLGKEKSTNRIVEDDASISSCNKLITSDKVENFHEEHEKNSHHIHKNADDSTKKPNAETTVASEIKETNDTWNSQFGKRPESPSEISPIKGSVRTGLFEWDNDFEDIRSEDCILSLDSDPLLEMKDDDFKNRLENLNEAIEEDIVQSVLRPTNCRTYCRANKTKSSQGASNFDKLMDGTSQALAKANSESSKDGLNQAKKGGVSCGTSFRGTVGRTRDYTVLHPSCLSVCNVTIQDTMERSMDEFTASTPADLGEAGRLRKKADIATSKTTTRFRPSNTKSKKDVKLEFFGFEDHETGGDEGGSGSSNYKIKYFGFDDLSESEDDEDDDCQVERKTSKKRTKTAPSPSLQPPPESNDNSQDSQSGTNNAENLDFTEDLPGVPESVKKPINKQGDKSKENTRKIFSGPKRSPTKAVYNARHWNHPDSEELPGPPVVKPQSVTVRLSSKEPNQKDDGVFKAPAPPSKVIKTVTIPTQPYQDIVTALKCRREDKELYTVVQHVKHFNDVVEFGENQEFTDDIEYLLSGLKSTQPLNTRCLSVISLATKCAMPSFRMHLRAHGMVAMVFKTLDDSQHHQNLSLCTAALMYILSRDRLNMDLDRASLDLMIRLLELEQDASSAKLLNEKDMNKIKEKIRRLCETVHNKHLDLENITTGHLAMETLLSLTSKRAGDWFKEELRLLGGLDHIVDKVKECVDHLSRDEDEEKLVASLWGAERCLRVLESVTVHNPENQSYLIAYKDSQLIVSSAKALQHCEELIQQYNRAEDSICLADSKPLPHQNVTNHVGKAVEDCMRAIIGVLLNLTNDNEWGSTKTGEQDGLIGTALNCVLQVPKYLPQEQRFDIRVLGLGLLINLVEYSARNRHCLVNMETSCSFDSSICSGEGDDSLRIGGQVHAVQALVQLFLERERAAQLAESKTDELIKDAPTTQHDKSGEWQETSGEIQWVSTEKTDGTEEKHKKEEEDEELDLNKALQHAGKHMEDCIVASYTALLLGCLCQESPINVTTVREYLPEGDFSIMTEMLKKFLSFMNLTCAVGTTGQKSISRVIEYLEHC
For the molecule B1, the binding entry with Myc-STAG2 WT (human) is given as “binds”.

B2: 35S-labeled STAG2–SCC1(211–420) complex, WT (complex, UniProt Q8N3U4-2 1-1268; O60216 211-420)
chain 1: T1 sequence
chain 2: YEDQYKDDNFGEGNDGGILDDKLISNNDGGIFDDPPALSEAGVMLPEQPAHDDMDEDDNVSMGGPDSPDSVDPVEPMPTMTDQTTLVPNEEEAFALEPIDITVKETKAKRKRKLIVDSVKELDSKTIRAQLSDYSDIVTTLDLAPPTKKLMMWKETGGVEKLFSLPAQPLWNNRLLKLFTRCLTPLVPEDLRKRRKGGEADNLDEFLKEF
modifications: 35S-methionine label | 35S-methionine label
For B2, the binding entry in test [1] and in test [2] was “binds” throughout.

B3: 35S-labeled STAG2 p.Ser327Asn–SCC1(211–420) complex (complex, UniProt Q8N3U4-2 1-1268; O60216 211-420)
chain 1: T1 sequence with S327N
chain 2: B2 chain 2
modifications: 35S-methionine label | 35S-methionine label
In the case of B3, the binding entry in test [1] and in test [2] was “binds” throughout.

B4: endogenous PDS5A (protein, UniProt Q29RF7 1-1337)
chain: MDFTAQPKPATALCGVVSADGKIAYPPGVKEITDKITTDEMIKRLKMVVKTFMDMDQDSEDEKQQYLPLALHLASEFFLRNPNKDVRLLVACCLADIFRIYAPEAPYTSHDKLKDIFLFITRQLKGLEDTKSPQFNRYFYLLENLAWVKSYNICFELEDCNEIFIQLFRTLFSVINNSHNKKVQMHMLDLMSSIIMEGDGVTQELLDSILINLIPAHKNLNKQSFDLAKVLLKRTVQTIEACIANFFNQVLVLGRSSVSDLSEHVFDLIQELFAIDPHLLLSVMPQLEFKLKSNDGEERLAVVRLLAKLFGSKDSDLATQNRPLWQCFLGRFNDIHVPVRLESVKFASHCLMNHPDLAKDLTEYLKVRSHDPEEAIRHDVIVTIITAAKRDLALVNDQLLGFVRERTLDKRWRVRKEAMMGLAQLYKKYCLHGEAGKEAAEKVSWIKDKLLHIYYQNSIDDKLLVEKIFAQYLVPHNLETEERMKCLYYLYASLDPNAVKALNEMWKCQNMLRSHVRELLDLHKQPTSEANCSAMFGKLMTIAKNLPDPGKAQDFVKKFNQVLGDDEKLRSQLELLISPTCSCKQADICVREIARKLANPKQPTNPFLEMVKFLLERIAPVHIDSEAISALVKLMNKSIEGTADDEEEGVSPDTAIRSGLELLKVLSFTHPTSFHSAETYESLLQCLRMEDDKVAEAAIQIFRNTGHKIETDLPQIRSTLIPILHQKAKRGTPHQAKQAVHCIHAIFTNKEVQLAQIFEPLSRSLNADVPEQLITPLVSLGHISMLAPDQFASPMKSVVANFIVKDLLMNDRSTGEKNGKLWSPDEEVSPEVLAKVQAIKLLVRWLLGMKNNQSKSANSTLRLLSAMLVSEGDLTEQKRISKSDMSRLRLAAGSAIMKLAQEPCYHEIITPEQFQLCALVINDECYQVRQIFAQKLHKALVKLLLPLEYMAIFALCAKDPVKERRAHARQCLLKNISIRREYIKQNPMATEKLLSLLPEYVVPYMIHLLAHDPDFTRSQDVDQLRDIKECLWFMLEVLMTKNENNSHAFMKKMAENIKLTRDAQSPDESKTNEKLYTVCDVALCVINSKSALCNADSPKDPVLPMKFFTQPEKDFCNDKSYISEETRVLLLTGKPKPAGVLGAVNKPLSATGRKPYVRSTGTETGSNINVNSELNPSTGNRSREQSSEAAETGVSENEENPVRIISVTPVKNIDPVKNKEINSDQATQGNISSDRGKKRTVTAAGAENIQQKTDEKVDESGPPAPSKPRRGRRPKSESQGNATKNDDLNKPINKGRKRAAVGQESPGGLEAGNAKAPKLQDLAKKAAPAERQIDLQR
In the case of B4, the binding result with Myc-STAG2 WT (human) is listed as “binds”.

For the origin of these results see article PMC5677968, “Familial STAG2 germline mutation defines a new human cohesinopathy” (NPJ Genomic Medicine, 2017).
